Measurements: article PMC6868062
No constants are given. Whether binding was seen depends on the method and setting. In cells and extracts the contact can be indirect. Some binding calls cover weakened binding; strength is not graded here.

How the values were obtained:
[1] = biological target: H2A.X (human (endogenous in SW480)) (UniProt P16104); test: co-IP; endogenous proteins in SW480 lysate; immunoprecipitation with Livin antibody or H2A.X antibody (reciprocal), 4°C overnight, western blotting
HA-tagged WT H2A.X = HA-tagged WT H2A.X (UniProt P16104); test: co-IP; HCT116 cells with shRNA knock-down of endogenous H2A.X, transfected with HA-tagged H2A.X WT or Y142F; lysate harvested 48 h after transfection; immunoprecipitation and western blotting for Livin

B1: Livin (protein, UniProt Q96CA5 1-298)
chain: MGPKDSAKCLHRGPQPSHWAAGDGPTQERCGPRSLGSPVLGLDTCRAWDHVDGQILGQLRPLTEEEEEEGAGATLSRGPAFPGMGSEELRLASFYDWPLTAEVPPELLAAAGFFHTGHQDKVRCFFCYGGLQSWKRGDDPWTEHAKWFPSCQFLLRSKGRDFVHSVQETHSQLLGSWDPWEEPEDAAPVAPSVPASGYPELPTPRREVQSESAQEPGGVSPAEAQRAWWVLEPPGARDVEAQLRRLQEERTCKVCLDRAVSIVFVPCGHLVCAECAPGLQLCPICRAPVRSRVRTFLS
- binding [1]: binds
- binding (HA-tagged WT H2A.X): binds
